Data as given in PubChem BioAssay AID504793 (Drosophila RNAi Screening Center, 2011).

Screen: 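Whole-genome screen for parts of the DNA damage checkpoint at G2/M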 (primary screen)
System: Drosophila S2R+ cells
Knock-down reagent: long dsRNA against Drosophila genes, about 0.25 µg dsRNA per well
Duration: 4 days of dsRNA, then 4 hours of drug before read-out
Conditions: doxorubicin 0.5 µM for 4 hours to cause double-strand breaks, in cells also given a low, harmless dose of dsRNA against nbs to sensitise the assay
Read-out: 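Mitotic index as the number of phospho-histone H3-positive cells in each well following doxorubicin, given as raw counts without normalisation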
Scale: mitotic cells: higher = more cells in mitosis, weaker G2 arrest
Active means: 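Genes are called active only when high mitotic counts were reproduced with independent dsRNAs and mitosis was checked for delay without damage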
Meaning of the calls: active = confirmed in follow-up tests; inactive = not confirmed
The deposit covers about 23,000 reagents; below is a random part of those that have a named target and a result. Of all reagents, 62 (0.27%) were called active. 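Calls come from follow-up tests whose scores are not deposited, so confirmed genes may have low counts here; counts are not normalised per plate.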 Raw values are not corrected between plates. Entries without a mark were called inactive. The numbers tell different reagents against one gene apart. No sequences are given here.

CG17019 scored mitotic cells, replicate 1 = 5.
After knock-down of c12.1 #1, the record shows mitotic cells, replicate 1 = 11.
With knock-down of c12.1 #2 the results were mitotic cells, replicate 1 = 8.
Knock-down of CG5281 gave: mitotic cells, replicate 1 = 3.
For cic #1 the deposit lists mitotic cells, replicate 1 = 9.
Depletion of cic #2 resulted in: mitotic cells, replicate 1 = 8.
Against cic #3, the values are mitotic cells, replicate 1 = 4.
After knock-down of cic #4, the screen gave mitotic cells, replicate 1 = 5.
Against cic #5 the deposit lists mitotic cells, replicate 1 = 4.
Against cic #6, the entry reads mitotic cells, replicate 1 = 3.
After knock-down of CG3165, the record shows mitotic cells, replicate 1 = 4.
CG4955 scored mitotic cells, replicate 1 = 7.
For CG11456, the entry reads mitotic cells, replicate 1 = 7.
After knock-down of Grx5 the results were mitotic cells, replicate 1 = 8.
Knock-down of snRNP-U1-70K #1 gave: mitotic cells, replicate 1 = 6.
snRNP-U1-70K #2 scored mitotic cells, replicate 1 = 4.
After knock-down of snRNP-U1-70K #3, the screen gave mitotic cells, replicate 1 = 5.
After knock-down of Polr3G the results were mitotic cells, replicate 1 = 9.
With knock-down of CG7110 #1 the results were mitotic cells, replicate 1 = 9.
With knock-down of CG7110 #2, the record shows mitotic cells, replicate 1 = 2.
CG3420 scored mitotic cells, replicate 1 = 5.
Against CG9030, the entry reads mitotic cells, replicate 1 = 4.
After knock-down of eEF2 the results were mitotic cells, replicate 1 = 10.
Charon gave mitotic cells, replicate 1 = 6.
After knock-down of Rfk #1, the record shows mitotic cells, replicate 1 = 7.
Silencing of Rfk #2 resulted in: mitotic cells, replicate 1 = 8.
cad #1 showed mitotic cells, replicate 1 = 5.
For cad #2 the deposit lists mitotic cells, replicate 1 = 13.
Depletion of Abp1 came out at: mitotic cells, replicate 1 = 4.
Silencing of CG8746 came out at: mitotic cells, replicate 1 = 3.
With knock-down of ND-42 #1, the screen gave mitotic cells, replicate 1 = 10.
For ND-42 #2, the values are mitotic cells, replicate 1 = 7.
With knock-down of CG2772 #1 the results were mitotic cells, replicate 1 = 4.
Depletion of CG2772 #2 resulted in: mitotic cells, replicate 1 = 4.
Silencing of l(1)G0020 gave: mitotic cells, replicate 1 = 6.
Against Polr1C, the values are mitotic cells, replicate 1 = 9.
Against CG43775, the values are mitotic cells, replicate 1 = 5.
beta-Man #1 showed mitotic cells, replicate 1 = 10.
For beta-Man #2 the deposit lists mitotic cells, replicate 1 = 8.
Silencing of Sid #1 came out at: mitotic cells, replicate 1 = 6.
Silencing of Sid #2 resulted in: mitotic cells, replicate 1 = 4.
For TotB, the entry reads mitotic cells, replicate 1 = 6.
Silencing of CG10165 came out at: mitotic cells, replicate 1 = 6.

Records listed so far whose target name begins with S or s (5):
snRNP-U1-70K #1: mitotic cells, replicate 1 = 6
snRNP-U1-70K #2: mitotic cells, replicate 1 = 4
snRNP-U1-70K #3: mitotic cells, replicate 1 = 5
Sid #1: mitotic cells, replicate 1 = 6
Sid #2: mitotic cells, replicate 1 = 4
